From patent US20240216421A1, “COMBINATION PRODUCT AND METHODS FOR PREVENTING THE EMERGENCE OF ANTIBIOTIC-RESISTANT BACTERIA UNDER ANTIBIOTIC TREATMENT” (DIOTHERIS, priority 2021, published 2024)
For at least one compound, name, drawing or mass did not settle the structure.

Test system: S. aureus ATCC 29213
Assay: Co-culture on rifampicin-containing blood agar: growth of rifampicin-resistant colonies
Format: cell-based, Staphylococcus aureus
Conditions: ≈10^7 CFU S. aureus on filter, blood agar with 20 μg/mL rifampicin, no non-pathogenic microorganism

CO[C@H]1/C=C/O[C@@]2(C)Oc3c(C)c(O)c4c(O)c(c(/C=N/N5CCN(C)CC5)c(O)c4c3C2=O)NC(=O)/C(C)=C\C=C\[C@H](C)[C@H](O)[C@@H](C)[C@@H](O)[C@@H](C)[C@H](OC(C)=O)[C@@H]1C [rifampicin]
rifampicin-resistant colonies, rifampicin alone: Large rifampicin-resistant colonies were seen
